Some of the results follow. These are further read-outs of the screen, such as a control signal, another cell line or another target. No call is given for them. Compounds called inactive in the main read-out are mostly missing here. Words in brackets tell the shape of the fitted curve; partial curves, single points and poor fits give uncertain potencies.
Test: qHTS Assay for Lipid Storage Modulators in Drosophila S3 Cells;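 as to cell number change: cells counted by Cell Tracker Red CMTPX staining in the red channel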
Settings: BODIPY lipid droplet fluorescence, 18-24 h; for cell number change: measured here: cell count max response, cells fed with added oleic acid
Summary of the method: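 Drosophila S3 cells loaded with oleic acid (400 uM, as added) and compounds at several concentrations; lipid droplets imaged by 488-nm laser-scanning cytometry, 500–530 nm intensity and object ratio to cell channel. Percent activity normalized to 20 uM Triacsin C.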

[1] = measured here: lipid fluorescence (Fed channel) AC50, cells fed with added oleic acid
[2] = measured here: cell number channel AC50, cells fed with added oleic acid

| Compound | cell number change | AC50 [1] | AC50 [2] |
| --- | --- | --- | --- |
| Cc1cc(C)cc(NC(=O)CN(C)CC(=O)N(CC(C)C)c2c(N)n(CC(C)C)c(=O)[nH]c2=O)c1 | 13.5% | 29.1 µM [rising, single point] | – |
| CC[C@@H](C)[C@H](NC(=O)OCc1ccccc1)c1nnc([C@@H](NC(=O)OCc2ccccc2)[C@@H](C)CC)o1 | 1.47% | 4.61 µM [rising, partial curve, poor fit] | 5.17 µM [rising, partial curve, poor fit] |
| CC(C)CC(=O)NC(=S)Nc1ccc(S(=O)(=O)N2CCN(C)CC2)cc1 | – | – | 0.58 µM [falling, single point] |
| Cc1cc(C)c(S(=O)(=O)c2ccccc2C)c(SCC(C)C)n1 | -29.1% | 29.1 µM [falling, single point] | 3.66 µM [rising, single point] |
| O=C(Nc1cccc2cccnc12)c1cccc2ccccc12 | 111% | 0.00517 µM [rising, full curve, poor fit] | 18.4 µM [rising, partial curve] |
| COc1ccccc1S(=O)(=O)CC(O)COc1ccc(C#N)cc1 (configuration not stated) | 44.9% | 4.61 µM [falling, single point] | 3.26 µM [falling, single point] |
| CN(C)CCCn1c(N)c(S(=O)(=O)c2ccccc2)c2nc3ccccc3nc21 | -9.94% | 6.51 µM [falling, single point] | – |
| CC(C)NC(=S)N/N=C1\CCCCC1C1CCCCC1 (configuration not stated) | 19.2% | 3.26 µM [rising, partial curve] | 0.58 µM [rising, full curve, poor fit] |
| O=C(CSc1ccc2c(c1)OCCO2)Nc1ncccc1O | 6.56% | – | – |
| COc1ccc(/C=C/C(=O)N2CCCC2)cc1OC | 11.1% | – | – |
| CC(C)(C)c1ccc(OCCC(=O)NCC(c2cccs2)N2CCOCC2)cc1 (configuration not stated) | -33.5% | 18.4 µM [falling, single point] | 16.4 µM [falling, single point] |
| COCCCNC(=O)c1c(F)c(F)c(F)c(F)c1F | -2.16% | – | – |
| O=C(NNc1cccc(Cl)c1)c1cccnc1Cl | 35% | – | 11.6 µM [rising, partial curve, poor fit] |
| CC(=O)Nc1ccc(NC2=Nc3ccccc3N3C2=Nc2c(c(C)nn2-c2ccccc2)C3c2ccccc2)cc1 (configuration not stated) | -8.37% | – | – |
| N#Cc1c(C(F)(F)F)cc(=O)[nH]c1SCC(=O)O | 67% | – | – |
| c1ccc(Cn2ncc3c(N4CCCCC4)ncnc32)cc1 | -3.82% | 1.46 µM [falling, partial curve] | – |

Some entries already given, showing only cell number change and AC50 [1]:
Compound	cell number change	AC50 [1]
COCCCNC(=O)c1c(F)c(F)c(F)c(F)c1F	-2.16%	–
O=C(NNc1cccc(Cl)c1)c1cccnc1Cl	35%	–
